Laboratory results reported in the supplement of paper PMC12067093, “Discovery and optimisation of a covalent ligand for TRIM25 and its application to targeted protein ubiquitination” (Chemical Science, 2025).
Some of the results follow.

The chains behind the UniProt entries cited, without tags or fusion partners. Where a name states a change or a piece, a line headed by the entry shows the natural chain unless it says otherwise.
UniProt Q9BWH6: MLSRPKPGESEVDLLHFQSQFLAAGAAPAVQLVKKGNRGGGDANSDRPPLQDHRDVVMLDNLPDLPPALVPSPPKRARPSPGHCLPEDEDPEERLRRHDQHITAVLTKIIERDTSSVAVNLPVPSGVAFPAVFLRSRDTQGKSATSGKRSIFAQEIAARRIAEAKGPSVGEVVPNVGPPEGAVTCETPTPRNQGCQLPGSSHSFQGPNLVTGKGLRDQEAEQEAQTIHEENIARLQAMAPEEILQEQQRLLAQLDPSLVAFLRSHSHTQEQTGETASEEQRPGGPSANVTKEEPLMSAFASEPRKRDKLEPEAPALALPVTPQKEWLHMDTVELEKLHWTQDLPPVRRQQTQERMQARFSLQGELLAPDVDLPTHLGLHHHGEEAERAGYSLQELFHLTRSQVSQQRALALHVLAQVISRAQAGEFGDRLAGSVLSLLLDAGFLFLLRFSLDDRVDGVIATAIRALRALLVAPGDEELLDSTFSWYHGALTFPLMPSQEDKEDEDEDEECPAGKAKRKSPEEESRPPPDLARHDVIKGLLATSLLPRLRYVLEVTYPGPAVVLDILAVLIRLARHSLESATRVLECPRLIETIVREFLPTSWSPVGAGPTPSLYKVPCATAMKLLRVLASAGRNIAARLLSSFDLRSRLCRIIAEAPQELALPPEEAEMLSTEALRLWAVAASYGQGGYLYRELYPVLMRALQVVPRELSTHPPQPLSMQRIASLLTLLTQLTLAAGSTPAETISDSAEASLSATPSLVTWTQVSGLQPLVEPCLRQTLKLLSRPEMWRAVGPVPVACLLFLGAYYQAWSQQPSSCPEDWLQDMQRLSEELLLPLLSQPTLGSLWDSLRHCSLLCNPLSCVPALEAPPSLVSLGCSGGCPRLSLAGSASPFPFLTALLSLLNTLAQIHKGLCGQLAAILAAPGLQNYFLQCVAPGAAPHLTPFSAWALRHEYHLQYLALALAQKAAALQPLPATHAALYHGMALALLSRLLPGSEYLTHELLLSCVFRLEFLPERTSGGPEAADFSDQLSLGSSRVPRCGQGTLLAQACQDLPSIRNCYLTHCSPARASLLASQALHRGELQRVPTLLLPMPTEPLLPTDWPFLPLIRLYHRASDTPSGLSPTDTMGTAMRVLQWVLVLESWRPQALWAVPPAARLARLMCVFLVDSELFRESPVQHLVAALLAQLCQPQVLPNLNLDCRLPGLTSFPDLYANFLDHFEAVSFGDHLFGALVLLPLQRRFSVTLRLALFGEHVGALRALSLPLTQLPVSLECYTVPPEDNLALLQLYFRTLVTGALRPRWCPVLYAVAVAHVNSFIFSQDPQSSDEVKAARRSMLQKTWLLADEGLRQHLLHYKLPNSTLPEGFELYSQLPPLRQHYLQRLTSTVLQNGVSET
UniProt O60942: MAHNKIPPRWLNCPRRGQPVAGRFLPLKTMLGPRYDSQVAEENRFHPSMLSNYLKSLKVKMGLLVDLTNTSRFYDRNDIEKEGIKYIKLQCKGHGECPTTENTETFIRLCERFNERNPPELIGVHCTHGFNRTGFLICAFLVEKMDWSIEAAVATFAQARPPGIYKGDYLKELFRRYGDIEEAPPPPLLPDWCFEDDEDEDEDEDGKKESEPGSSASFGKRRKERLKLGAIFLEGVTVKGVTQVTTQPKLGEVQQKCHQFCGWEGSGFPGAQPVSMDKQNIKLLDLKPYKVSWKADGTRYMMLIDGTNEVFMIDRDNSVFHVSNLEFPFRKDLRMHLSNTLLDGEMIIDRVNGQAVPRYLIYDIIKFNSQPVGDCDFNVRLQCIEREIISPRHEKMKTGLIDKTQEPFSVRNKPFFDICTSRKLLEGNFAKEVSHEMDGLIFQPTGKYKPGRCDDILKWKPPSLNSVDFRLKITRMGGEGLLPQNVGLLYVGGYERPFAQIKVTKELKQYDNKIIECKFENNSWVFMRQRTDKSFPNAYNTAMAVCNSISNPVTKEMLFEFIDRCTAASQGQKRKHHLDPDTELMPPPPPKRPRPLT
UniProt O75150, whole entry, looked up: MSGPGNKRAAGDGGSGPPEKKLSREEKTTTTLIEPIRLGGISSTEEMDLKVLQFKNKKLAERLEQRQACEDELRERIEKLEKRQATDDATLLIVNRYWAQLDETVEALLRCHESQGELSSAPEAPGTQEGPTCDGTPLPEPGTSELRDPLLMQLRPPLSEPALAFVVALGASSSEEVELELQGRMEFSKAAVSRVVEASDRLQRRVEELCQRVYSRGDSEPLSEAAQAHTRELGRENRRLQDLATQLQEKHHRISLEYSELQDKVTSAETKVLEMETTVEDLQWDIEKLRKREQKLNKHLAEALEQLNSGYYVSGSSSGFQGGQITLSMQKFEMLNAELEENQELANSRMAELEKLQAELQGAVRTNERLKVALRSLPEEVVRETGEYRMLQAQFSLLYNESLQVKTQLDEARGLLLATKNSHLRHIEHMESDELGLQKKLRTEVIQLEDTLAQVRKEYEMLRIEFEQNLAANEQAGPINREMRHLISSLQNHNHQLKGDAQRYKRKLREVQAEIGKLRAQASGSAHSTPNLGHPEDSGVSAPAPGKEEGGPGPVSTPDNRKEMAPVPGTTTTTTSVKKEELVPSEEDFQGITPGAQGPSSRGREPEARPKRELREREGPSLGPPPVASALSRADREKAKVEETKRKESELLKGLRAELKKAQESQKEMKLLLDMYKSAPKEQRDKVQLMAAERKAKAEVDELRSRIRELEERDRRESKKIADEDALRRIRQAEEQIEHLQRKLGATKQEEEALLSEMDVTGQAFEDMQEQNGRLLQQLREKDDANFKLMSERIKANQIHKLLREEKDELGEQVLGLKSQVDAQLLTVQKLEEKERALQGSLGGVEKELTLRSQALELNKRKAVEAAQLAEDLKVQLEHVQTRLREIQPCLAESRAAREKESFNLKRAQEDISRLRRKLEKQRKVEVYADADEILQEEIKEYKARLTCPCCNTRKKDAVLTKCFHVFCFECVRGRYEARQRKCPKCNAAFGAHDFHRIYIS
UniProt Q96EP0: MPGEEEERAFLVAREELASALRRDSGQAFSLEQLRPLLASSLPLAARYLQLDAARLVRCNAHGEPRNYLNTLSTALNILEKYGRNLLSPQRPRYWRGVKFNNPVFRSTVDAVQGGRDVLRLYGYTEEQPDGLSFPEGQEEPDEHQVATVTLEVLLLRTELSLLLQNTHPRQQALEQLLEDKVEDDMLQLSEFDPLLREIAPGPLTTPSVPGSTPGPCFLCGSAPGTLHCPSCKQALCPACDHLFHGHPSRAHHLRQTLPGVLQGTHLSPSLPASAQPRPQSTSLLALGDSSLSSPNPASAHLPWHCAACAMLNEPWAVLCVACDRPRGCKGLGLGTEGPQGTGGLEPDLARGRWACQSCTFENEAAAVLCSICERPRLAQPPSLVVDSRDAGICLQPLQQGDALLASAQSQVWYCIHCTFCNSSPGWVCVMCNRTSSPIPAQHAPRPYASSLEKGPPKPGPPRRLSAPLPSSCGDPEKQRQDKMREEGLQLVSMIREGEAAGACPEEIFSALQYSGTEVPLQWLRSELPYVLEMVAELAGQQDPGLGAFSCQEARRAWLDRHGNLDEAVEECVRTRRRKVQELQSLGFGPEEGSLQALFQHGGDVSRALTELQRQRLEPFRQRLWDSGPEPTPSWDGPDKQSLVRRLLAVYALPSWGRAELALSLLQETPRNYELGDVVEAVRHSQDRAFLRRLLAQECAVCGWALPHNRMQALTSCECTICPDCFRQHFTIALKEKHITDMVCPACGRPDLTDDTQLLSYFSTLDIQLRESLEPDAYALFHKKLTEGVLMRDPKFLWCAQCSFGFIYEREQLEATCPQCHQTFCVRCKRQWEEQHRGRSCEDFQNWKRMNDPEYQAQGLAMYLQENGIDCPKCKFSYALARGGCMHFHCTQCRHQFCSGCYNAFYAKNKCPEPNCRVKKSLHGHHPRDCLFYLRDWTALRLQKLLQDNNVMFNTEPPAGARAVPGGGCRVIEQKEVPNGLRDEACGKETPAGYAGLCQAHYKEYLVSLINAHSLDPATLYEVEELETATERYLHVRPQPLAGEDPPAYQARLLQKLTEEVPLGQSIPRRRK
UniProt O75695: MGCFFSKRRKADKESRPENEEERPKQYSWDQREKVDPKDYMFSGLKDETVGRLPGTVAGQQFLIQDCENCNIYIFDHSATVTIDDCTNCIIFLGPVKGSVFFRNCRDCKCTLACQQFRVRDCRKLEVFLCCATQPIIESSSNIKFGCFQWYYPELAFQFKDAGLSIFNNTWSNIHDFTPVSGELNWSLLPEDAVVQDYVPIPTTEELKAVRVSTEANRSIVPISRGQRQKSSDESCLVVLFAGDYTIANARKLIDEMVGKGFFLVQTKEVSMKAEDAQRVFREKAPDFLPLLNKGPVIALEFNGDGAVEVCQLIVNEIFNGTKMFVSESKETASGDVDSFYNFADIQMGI
UniProt Q5M7Z0: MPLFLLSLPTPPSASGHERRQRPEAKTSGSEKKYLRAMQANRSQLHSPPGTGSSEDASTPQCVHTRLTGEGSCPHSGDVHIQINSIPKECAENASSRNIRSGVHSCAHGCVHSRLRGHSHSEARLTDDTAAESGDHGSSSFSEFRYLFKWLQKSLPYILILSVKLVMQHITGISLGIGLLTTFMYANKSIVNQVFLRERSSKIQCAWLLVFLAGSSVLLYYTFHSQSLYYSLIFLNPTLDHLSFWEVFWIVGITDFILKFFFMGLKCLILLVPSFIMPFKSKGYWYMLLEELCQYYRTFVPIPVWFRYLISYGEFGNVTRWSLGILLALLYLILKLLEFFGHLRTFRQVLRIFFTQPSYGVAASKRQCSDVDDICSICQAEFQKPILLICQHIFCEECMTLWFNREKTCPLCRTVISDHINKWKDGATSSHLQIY
UniProt Q5VTR2, whole entry, looked up: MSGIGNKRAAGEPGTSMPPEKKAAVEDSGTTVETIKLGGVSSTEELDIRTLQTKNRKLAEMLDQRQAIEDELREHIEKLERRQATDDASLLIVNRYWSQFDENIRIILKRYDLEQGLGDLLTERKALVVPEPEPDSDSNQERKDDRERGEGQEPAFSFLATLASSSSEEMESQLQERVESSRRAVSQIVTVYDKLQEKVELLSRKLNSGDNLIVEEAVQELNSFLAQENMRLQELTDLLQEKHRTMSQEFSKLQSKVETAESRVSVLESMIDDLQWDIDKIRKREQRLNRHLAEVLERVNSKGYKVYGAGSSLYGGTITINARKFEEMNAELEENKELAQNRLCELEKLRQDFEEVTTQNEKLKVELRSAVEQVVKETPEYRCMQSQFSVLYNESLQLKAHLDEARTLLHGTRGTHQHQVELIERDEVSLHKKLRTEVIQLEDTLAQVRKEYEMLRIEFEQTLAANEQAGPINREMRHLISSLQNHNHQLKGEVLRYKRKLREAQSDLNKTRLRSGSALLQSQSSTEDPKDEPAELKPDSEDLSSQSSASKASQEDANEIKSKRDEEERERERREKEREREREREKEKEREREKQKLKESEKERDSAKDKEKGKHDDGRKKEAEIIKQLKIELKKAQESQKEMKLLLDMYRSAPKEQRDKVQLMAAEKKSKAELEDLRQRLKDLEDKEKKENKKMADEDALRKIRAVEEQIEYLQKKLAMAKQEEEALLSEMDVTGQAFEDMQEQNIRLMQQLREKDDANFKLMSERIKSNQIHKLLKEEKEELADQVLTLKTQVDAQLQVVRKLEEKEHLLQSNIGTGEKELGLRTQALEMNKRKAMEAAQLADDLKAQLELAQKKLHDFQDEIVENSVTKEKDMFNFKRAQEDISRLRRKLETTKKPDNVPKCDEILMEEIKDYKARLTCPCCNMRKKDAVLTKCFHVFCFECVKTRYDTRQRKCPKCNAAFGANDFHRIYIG
UniProt P78345: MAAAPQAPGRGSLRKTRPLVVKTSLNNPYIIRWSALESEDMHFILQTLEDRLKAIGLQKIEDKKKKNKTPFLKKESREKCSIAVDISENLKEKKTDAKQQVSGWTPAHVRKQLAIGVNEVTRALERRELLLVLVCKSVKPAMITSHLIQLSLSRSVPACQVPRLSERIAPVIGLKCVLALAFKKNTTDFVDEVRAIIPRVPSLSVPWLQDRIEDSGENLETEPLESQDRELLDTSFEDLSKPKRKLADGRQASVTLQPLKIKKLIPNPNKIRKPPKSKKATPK
UniProt Q9H7B2: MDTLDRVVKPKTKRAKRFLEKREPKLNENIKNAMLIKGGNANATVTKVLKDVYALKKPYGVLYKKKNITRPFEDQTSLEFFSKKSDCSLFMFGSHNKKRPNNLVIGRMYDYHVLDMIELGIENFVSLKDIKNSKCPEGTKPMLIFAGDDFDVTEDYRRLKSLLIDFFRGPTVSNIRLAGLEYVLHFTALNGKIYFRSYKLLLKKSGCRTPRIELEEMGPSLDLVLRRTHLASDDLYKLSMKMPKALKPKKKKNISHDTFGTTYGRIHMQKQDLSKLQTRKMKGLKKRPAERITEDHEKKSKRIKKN

compound: Cc1cc(ccc1-c1ccccc1)C(=O)N1CCCN(CC1)C(=O)CCl [compound 10]; assay: probe-labelled cysteine peptide fold change vs DMSO (competition) (log2 fold change); higher = less target engagement (more negative = stronger competition); details: 10 µM; THP-1; incubation time: 4 h
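Note: competitive profiling in live THP-1 cells: cysteine peptides tagged with an iodoacetamide desthiobiotin (IA-DTB) probe, intensity after compound treatment relative to DMSO-treated cells.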

Row | Target | probe-labelled cysteine peptide fold change
1 | RPL12_P30050_162_HPHDIIDDINSGAVECPAS (UniProt P30050) | -0.122
2 | RPAP1_Q9BWH6_185_GPSVGEVVPNVGPPEGAVTCETPTPR (UniProt Q9BWH6) | 0.902
3 | RPL10A_P62906_74_FSVCVLGDQQHCDEAK (UniProt P62906) | 0.354
4 | RNF213_Q63HN8_3365_NCLTNTAK (UniProt Q63HN8) | 0.0859
5 | RNGTT_O60942_261_CHQFCGWEGSGFPGAQPVSMDK (UniProt O60942) | -0.215
6 | RNH1_P13489_152_LQLEYCSLSAASCEPLASVLR (UniProt P13489) | -0.0288
7 | RPP25_Q9BUL9_16_SEEAPAGCGAEGGGPGSGPFADLAPGAVHMR (UniProt Q9BUL9) | 0.048
8 | RPL10A_P62906_66_FSVCVLGDQQHCDEAK (UniProt P62906) | 0.0904
9 | RPP40_O75818_219+235_DLQCPVLQSSELEGTPEVSCR (UniProt O75818) | -0.39
10 | RNF213_Q63HN8_1796_CLPAFLPDCLDLETLGHCLAHLAGMGGSPVER (UniProt Q63HN8) | 0.473
11 | RNF40_O75150_890_EIQPCLAESR (UniProt O75150) | 0.0946
12 | RNF213_Q63HN8_2809_QVHLVSFQCSPHSTPQGIISTFR (UniProt Q63HN8) | 0.305
13 | RPAP2_Q8IXW5_395_FLYGQNYASVCLKPEASLVKEELDEDDIISDPDSHFPAWR (UniProt Q8IXW5) | -0.0193
14 | RNF31_Q96EP0_817_EQLEATCPQCHQTFCVR (UniProt Q96EP0) | 0.153
15 | RPL10A_P62906_164_VLCLAVAVGHVK (UniProt P62906) | -0.0453
16 | RP2_O75695_131_KLEVFLCCATQPIIESSSNIK (UniProt O75695) | 0.0489
17 | RPL10_P27635_49_AKVDEFPLCGHMVSDEYEQLSSEALEAAR (UniProt P27635) | -0.186
18 | RNPEP_Q9H4A4_85_LDSHPCLEVTAAALRR (UniProt Q9H4A4) | -0.158
19 | RPL4_P36578_125_YAICSALAASALPALVMSK (UniProt P36578) | 0.141

Row | Target | probe-labelled cysteine peptide fold change
20 | RPP30_P78346_87_LTIIVSDPSHCNVLR (UniProt P78346) | -0.0425
21 | RPL32_P62910_91_ELEVLLMCNK (UniProt P62910) | -0.284
22 | ROCK1_Q13464_741_QCSMLDVDLK (UniProt Q13464) | 0.36
23 | RNFT1_Q5M7Z0_106_SGVHSCAHGCVHSR (UniProt Q5M7Z0) | 0.244
24 | RNF31_Q96EP0_473_LSAPLPSSCGDPEK (UniProt Q96EP0) | -0.208
25 | RPL10_P27635_49_VDEFPLCGHMVSDEYEQLSSEALEAAR (UniProt P27635) | 0.0635
26 | RNPEP_Q9H4A4_69_CLEPEGAAELR (UniProt Q9H4A4) | 0.063
27 | RNF40_O75150_69_QACEDELR (UniProt O75150) | -0.126
28 | RPL6_Q02878_44_KGKPHCSR (UniProt Q02878) | -0.0624
29 | RPL37A_P61513_60_AVGIWHCGSCMK (UniProt P61513) | -0.0854
30 | RPL17_P18621_57_QCVPFR (UniProt P18621) | -0.201
31 | RNF31_Q96EP0_901_HQFCSGCYNAFYAK (UniProt Q96EP0) | -0.00088
32 | RNF20_Q5VTR2_960_CNAAFGANDFHR (UniProt Q5VTR2) | 0.279
33 | RNF40_O75150_971_CFHVFCFECVR (UniProt O75150) | 0.147
34 | ROCK1_Q13464_1261_PLWHVFKPPPALECR (UniProt Q13464) | -0.00575
35 | RPP38_P78345_176_CVLALAFK (UniProt P78345) | 0.104
36 | RPL13A_P40429_38_CEGINISGNFYR (UniProt P40429) | -0.0486
37 | RPF2_Q9H7B2_87_SDCSLFMFGSHNK (UniProt Q9H7B2) | -0.0576

same assay, conditions: 50 µM; THP-1; incubation time: 4 h

Row | Target | probe-labelled cysteine peptide fold change
38 | RPL12_P30050_162_HPHDIIDDINSGAVECPAS (UniProt P30050) | -0.000329
39 | RPAP1_Q9BWH6_185_GPSVGEVVPNVGPPEGAVTCETPTPR (UniProt Q9BWH6) | 1.33
40 | RPL10A_P62906_74_FSVCVLGDQQHCDEAK (UniProt P62906) | -0.0711
41 | RNF213_Q63HN8_3365_NCLTNTAK (UniProt Q63HN8) | -0.0404
42 | RNGTT_O60942_261_CHQFCGWEGSGFPGAQPVSMDK (UniProt O60942) | -0.34
43 | RNH1_P13489_152_LQLEYCSLSAASCEPLASVLR (UniProt P13489) | 0.113
44 | RPP25_Q9BUL9_16_SEEAPAGCGAEGGGPGSGPFADLAPGAVHMR (UniProt Q9BUL9) | -0.186
45 | RPL10A_P62906_66_FSVCVLGDQQHCDEAK (UniProt P62906) | -0.354
46 | RPP40_O75818_219+235_DLQCPVLQSSELEGTPEVSCR (UniProt O75818) | -0.857
47 | RNF213_Q63HN8_1796_CLPAFLPDCLDLETLGHCLAHLAGMGGSPVER (UniProt Q63HN8) | 0.152
48 | RNF40_O75150_890_EIQPCLAESR (UniProt O75150) | -0.197
49 | RNF213_Q63HN8_2809_QVHLVSFQCSPHSTPQGIISTFR (UniProt Q63HN8) | 0.315
50 | RPAP2_Q8IXW5_395_FLYGQNYASVCLKPEASLVKEELDEDDIISDPDSHFPAWR (UniProt Q8IXW5) | 0.0537
51 | RNF31_Q96EP0_817_EQLEATCPQCHQTFCVR (UniProt Q96EP0) | 0.179
52 | RPL10A_P62906_164_VLCLAVAVGHVK (UniProt P62906) | 0.248
53 | RP2_O75695_131_KLEVFLCCATQPIIESSSNIK (UniProt O75695) | -0.00445
54 | RPL10_P27635_49_AKVDEFPLCGHMVSDEYEQLSSEALEAAR (UniProt P27635) | -0.281
55 | RNPEP_Q9H4A4_85_LDSHPCLEVTAAALRR (UniProt Q9H4A4) | -0.281
56 | RPL4_P36578_125_YAICSALAASALPALVMSK (UniProt P36578) | -0.0535

Row | Target | probe-labelled cysteine peptide fold change
57 | RPP30_P78346_87_LTIIVSDPSHCNVLR (UniProt P78346) | -0.00471
58 | RPL32_P62910_91_ELEVLLMCNK (UniProt P62910) | -0.15
59 | ROCK1_Q13464_741_QCSMLDVDLK (UniProt Q13464) | -0.0367
60 | RNFT1_Q5M7Z0_106_SGVHSCAHGCVHSR (UniProt Q5M7Z0) | 0.197
61 | RNF31_Q96EP0_473_LSAPLPSSCGDPEK (UniProt Q96EP0) | 0.0977
62 | RPL10_P27635_49_VDEFPLCGHMVSDEYEQLSSEALEAAR (UniProt P27635) | 0.11
63 | RNPEP_Q9H4A4_69_CLEPEGAAELR (UniProt Q9H4A4) | 0.0983
64 | RNF40_O75150_69_QACEDELR (UniProt O75150) | 0.563
65 | RPL6_Q02878_44_KGKPHCSR (UniProt Q02878) | -0.39
66 | RPL37A_P61513_60_AVGIWHCGSCMK (UniProt P61513) | 0.018
67 | RPL17_P18621_57_QCVPFR (UniProt P18621) | 0.118
68 | RNF31_Q96EP0_901_HQFCSGCYNAFYAK (UniProt Q96EP0) | -0.144
69 | RNF20_Q5VTR2_960_CNAAFGANDFHR (UniProt Q5VTR2) | 0.358
70 | RNF40_O75150_971_CFHVFCFECVR (UniProt O75150) | 0.239
71 | ROCK1_Q13464_1261_PLWHVFKPPPALECR (UniProt Q13464) | 0.121
72 | RPP38_P78345_176_CVLALAFK (UniProt P78345) | -0.0388
73 | RPL13A_P40429_38_CEGINISGNFYR (UniProt P40429) | 0.443
74 | RPF2_Q9H7B2_87_SDCSLFMFGSHNK (UniProt Q9H7B2) | 0.119
